Test results reported in PubChem BioAssay AID493014 (National Center for Advancing Translational Sciences (NCATS), 2011).
This is one part of the list. Further columns of the screen follow, without active or inactive calls. Most of these compounds were active or inconclusive in the main read-out, so they are no random draw. The note in brackets gives the kind of curve behind each potency; many fits are weak.

Assay: qHTS Assay to Find Inhibitors of Chronic Active B-Cell Receptor Signaling
Details: ABC-DLBCL IkBa-CBG/CBR reporter, luminescence ratio (green luciferase fused to IkBa over red control in TMD8 lymphoma cells), 4 h
Summary of the method: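 TMD8 human ABC-DLBCL cells with doxycycline-inducible IκBα–green luciferase fusion and unfused red luciferase, in 0.5% FBS medium; compounds up to 46 uM, 4 h at 37C. Green/red luminescence ratio, filter-overlap corrected, fitted to concentration-response curves.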

[1] = measured here: CBR red luminescence, cell number
[2] = measured here: IkBa-CBG green luminescence

| Compound | AC50 [1] | AC50 [2] |
| --- | --- | --- |
| Cc1noc(NS(=O)(=O)c2ccc(NC(=O)/C=C/c3ccccc3)cc2)c1C | 5.17 µM [falling, partial curve, poor fit] | – |
| COc1cccc(C2/C(=C(/O)c3ccccc3)C(=O)C(=O)N2CCCC(=O)O)c1 (configuration not stated) | 20 µM [rising, single point] | – |
| Cc1nc([N+](=O)[O-])c(N2CCOCC2)n1Cc1ccccc1 | 10 µM [falling, partial curve, poor fit] | – |
| COc1ccc(-c2ccc(/C=N/NC(=O)Cc3nnc(N)s3)o2)cc1Cl | 25.1 µM [rising, single point] | – |
| CC(C)[C@H](NC(=O)N1CCn2c1nc1ccccc12)C(=O)N[C@H](C(=O)O)c1ccccc1 | 2.24 µM [falling, full curve, poor fit] | – |
| O=C(COc1ccccc1C(=O)O)Nc1nc2ccc([N+](=O)[O-])cc2s1 | 0.708 µM [falling, full curve] | – |
| CC(=O)c1ccc(C(=O)Nc2ccc3c(c2)C(=O)NC3=O)cc1 | 0.316 µM [falling, partial curve, poor fit] | – |
| COc1ccc(CNC(=O)N2CCN(c3ccc(F)cc3)CC2)cc1Cl | 3.55 µM [falling, single point] | – |
| O=C(CCN1C(=O)/C(=C/c2ccccc2)SC1=S)NNC(=O)c1cccnc1 | 32.6 µM [falling, single point] | – |
| C=CCC[C@@H](Cc1ccc(F)cc1)C(=O)OC[C@@H](Cc1c[nH]c2ccccc12)NC(=O)[C@@H](CC=C)CC(=O)N[C@H](CO)Cc1ccccc1 | 20.6 µM [falling, partial curve, poor fit] | – |
| O=C(c1nnsc1S(=O)c1ccc(Cl)cc1)N1CCOCC1 (configuration not stated) | 2.82 µM [falling, full curve, poor fit] | – |
| C=CCn1c(SCC(=O)N2CCc3ccccc3C2)nc2sc(CC)cc2c1=O | 18.4 µM [falling, partial curve] | – |
| Cc1cc(OCC(=O)NC2CCCCC2)ccc1Cl | 29.1 µM [falling, single point] | – |
| COc1cccc(NC(=O)[C@@H]2CCCN2S(=O)(=O)c2cccc3cccnc23)c1 | 4.11 µM [rising, single point] | – |
| C=CCC(CC(O)COCCC)C(=O)NNC(=S)Nc1ccccc1 (configuration not stated) | 17.8 µM [falling, partial curve] | 4.47 µM [falling, full curve] |
| CCOC(=O)C1=C(C)OC(N)=C(C#N)C1c1cc2c(cc1Br)OCO2 (configuration not stated) | 20 µM [falling, single point] | – |
| CCOC(=O)CSc1nnc(NC(=O)c2cc([N+](=O)[O-])cc([N+](=O)[O-])c2)s1 | 0.651 µM [falling, full curve] | – |
| C[C@H](CO)N1C[C@H](C)[C@@H](CN(C)C(=O)Nc2ccccc2)Oc2c(NC(=O)C3CCCCC3)cccc2C1=O | 29.1 µM [rising, single point] | – |
| O=C(CSc1nc(-c2ccccc2)cn1-c1ccccc1F)Nc1ccc(F)cc1 | 3.16 µM [falling, partial curve] | – |
| O=C1c2ccccc2C(=O)c2c1cccc2N(CCO)CCO | 31.6 µM [rising, single point] | – |
| COC(=O)c1ccccc1NC(=O)Nc1ccc2c(c1)OCO2 | 13 µM [falling, partial curve] | – |
| S=C1N(c2ccccc2)C(c2ccccc2)N2CCCN12 (configuration not stated) | 0.164 µM [falling, full curve, poor fit] | – |

| Compound | AC50 [1] | AC50 [2] |
| --- | --- | --- |
| COc1ccc2c(c1)c(=O)oc1cc3occ(C(C)(C)C)c3cc12 | 29.1 µM [rising, single point] | 16.4 µM [falling, partial curve, poor fit] |
| Cc1ccc2cccc(OCC(=O)N3CCc4ccccc43)c2n1 | 10 µM [falling, partial curve, poor fit] | – |
| CC(=O)N1CCC(N(CCN2CCOCC2)C(=S)Nc2ccc(C)cc2C)CC1 | 12.6 µM [rising, single point] | – |
| Cc1cc(C)c(C(=O)CSc2nnc(N)s2)cc1C | 10 µM [rising, partial curve, poor fit] | – |
| COc1ccccc1NC(=O)Nc1sccc1-c1nc2ccccc2s1 | 0.355 µM [falling, full curve] | – |
| COc1cccc(-c2nc3c(c(SCC(=O)N4CCOCC4)n2)Cc2c(CO)cnc(C)c2O3)c1 | 1.12 µM [rising, partial curve, poor fit] | – |
| Cc1ccc(Nc2nc(-c3ccncc3)cs2)cc1 | 0.126 µM [rising, full curve, poor fit] | – |
| Cc1ccccc1C(=O)OC(C)CN1CCN(C)CC1 (configuration not stated) | 3.16 µM [rising, single point] | – |
| COC(=O)c1ccccc1N1C(=O)C2C(C1=O)[C@H]1C=C[C@@H]2C1 (some centres not stated) | 29.1 µM [rising, single point] | – |
| Cc1cccc(C)c1NC(=O)CN1CCN(CCCC(c2ccc(F)cc2)c2ccc(F)cc2)CC1 | 29.1 µM [falling, single point] | – |
| CC(C)N(C(=O)[C@H]1C[C@H](CC(=O)NCCc2ccccn2)C(=O)N2CCc3c([nH]c4cc(CCC(=O)N(C)C)ccc34)[C@]12C)C(C)C | 23.1 µM [rising, single point] | – |
| O=C(Nc1cccc(Cl)c1)C1CCCN(S(=O)(=O)c2ccc(F)cc2)C1 (configuration not stated) | 29.1 µM [falling, single point] | – |
| NC(=S)N/N=C/c1coc2c(ccc3ccccc32)c1=O | 0.00461 µM [rising, full curve, poor fit] | 0.0206 µM [rising, full curve, poor fit] |
| O=C(NCc1cccnc1)NC(=O)c1ccc(Cl)cc1 | 0.501 µM [rising, partial curve, poor fit] | – |
| Cc1ccn2c(=O)nc(SCC(=O)NCCc3ccccc3)nc2c1 | 0.411 µM [rising, full curve, poor fit] | – |
| O=C(N=C1SC2CS(=O)(=O)CC2N1c1ccc(F)c(Cl)c1)C1CC1 (configuration not stated) | 4.47 µM [falling, full curve, poor fit] | – |
| O=C(C#Cc1ccccc1)Nc1cccc(F)c1 | 10 µM [falling, partial curve, poor fit] | – |
| O=C(COC(=O)c1ccc2c(c1)OCO2)Nc1cccc(F)c1 | 4.61 µM [rising, partial curve] | – |
| Cc1ccc(S(=O)(=O)N2CCN(CCc3ccncc3)CC2)cc1 | 23.1 µM [rising, partial curve, poor fit] | – |
| CC(=O)c1cc(F)ccc1OCC(=O)N1CCCc2ccccc21 | 28.2 µM [falling, single point] | – |
| COCCNC(=O)COc1ccccc1C | 6.51 µM [rising, single point] | – |
| O=C1/C(=C\c2ccc(O)c(O)c2)N=C2CCCCCN12 | 35.5 µM [falling, single point] | – |

Whole records from above. Values in the order: AC50 [1] | AC50 [2]
CCOC(=O)C1=C(C)OC(N)=C(C#N)C1c1cc2c(cc1Br)OCO2 (configuration not stated) in the list: 20 µM [falling, single point] | –
COCCNC(=O)COc1ccccc1C in the list: 6.51 µM [rising, single point] | –
Cc1cc(OCC(=O)NC2CCCCC2)ccc1Cl in the list: 29.1 µM [falling, single point] | –

Next part.

| Compound | AC50 [1] | AC50 [2] |
| --- | --- | --- |
| COc1cccc(Nc2nc(-c3sc(NC(=O)c4ccccc4)nc3C)cs2)c1 | 3.98 µM [falling, partial curve, poor fit] | – |
| c1ccc(CCc2nc(-c3ccncc3)no2)cc1 | 3.66 µM [rising, partial curve, poor fit] | – |
| Cc1c(C=O)c2cc(OCc3ccccc3)ccc2n1C | 35.5 µM [falling, single point] | – |
| Cn1ncc2cc(NC(=S)NC(=O)c3ccccc3)ccc21 | 0.251 µM [falling, partial curve, poor fit] | – |
| O=C(c1cccnc1)c1ncc(C(F)(F)F)cc1Cl | 3.98 µM [rising, full curve] | – |
| COc1cc2ncnc(NCc3ccccc3F)c2cc1OC | 0.316 µM [falling, full curve] | – |
| COc1ccc(N2C(=O)C3CCCN3C2c2cccc(C)c2)cc1 (configuration not stated) | 29.1 µM [rising, single point] | – |
| O=C(N/N=C/c1ccc(O)c(Br)c1)c1cc2c(ccc3ccccc32)o1 | 3.55 µM [falling, full curve] | – |
| CC1N(O)C(c2ccc(Cl)cc2Cl)N(O)C1(C)C (configuration not stated) | 12.6 µM [rising, single point] | – |
| O=C(CC(Nc1ccccc1Cl)C(=O)OCC(=O)c1cccs1)c1ccccc1 (configuration not stated) | 10 µM [rising, partial curve] | – |
| CCc1nc(NC(=O)c2sc(C)nc2C)sc1C(=O)OC | 10 µM [falling, partial curve] | – |
| Oc1ccccc1/C=N/Nc1nccnc1Cl | 11.6 µM [falling, partial curve, poor fit] | – |
| O=C(C1=C[C@@H](c2ccc(Br)cc2)C[C@@H](OCc2ccc(CO)cc2)O1)N1CCN(Cc2ccc3c(c2)OCO3)CC1 | 15.8 µM [falling, single point] | – |
| OCCN(CCO)c1nc(-c2ccccc2)nc2c1oc1ccccc12 | 3.98 µM [falling, partial curve, poor fit] | – |
| CCn1c(C(=O)N2CCCC(C(=O)O)C2)cc2sccc21 (configuration not stated) | 29.1 µM [rising, single point] | – |
| O=C(Cc1ccccc1F)Nc1nc(-c2ccc(F)cc2)cs1 | 17.8 µM [falling, single point] | – |
| COc1ccc(C(=O)N/N=C/c2ccccc2C(=O)O)cc1OC | 35.5 µM [falling, single point] | – |
| Cc1cnc(NC(=O)C2CCCC2)s1 | 0.562 µM [falling, full curve] | – |
| CC(C(N)=O)N1C(=O)C2C3C=CC(C3)C2C1=O (configuration not stated) | 0.58 µM [falling, full curve, poor fit] | – |
| COc1ccc(CO[C@@H]2O[C@H](CO)[C@@H](O)[C@H](O)[C@H]2NC(C)=O)cc1OC | 35.5 µM [rising, partial curve, poor fit] | – |
